Test results from PubChem BioAssay AID493014 (National Center for Advancing Translational Sciences (NCATS), 2011).
The whole screen tested about 340,000 compounds, of which about 170 (0.05%) were called active. The inconclusive results got no clear call from the source; some entries with a clear call stand among them for comparison. The call rests on the fitted dose curve; in most records, active means well fitted inhibition curve with a large enough effect in the signal ratio, with a control signal flat (not every such curve was filed as active); inconclusive means small, poorly fitted or top-dose-only effect, or effect the other way, or a change in a side signal; inactive means flat fitted curve, though single readings scatter; the % refers to the signal ratio. Potencies of inconclusive entries are doubtful fits and often do not repeat.
Potency means the concentration at half of the fitted maximal effect.

Experiment: qHTS Assay to Find Inhibitors of Chronic Active B-Cell Receptor Signaling;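 on activity change, negative = inhibition: plate controls were basal doxycycline-induced cells for no effect and cells given 10 µM MG132 for full effect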
Settings: ABC-DLBCL IkBa-CBG/CBR reporter, luminescence ratio (green luciferase fused to IkBa over red control in TMD8 lymphoma cells), 4 h; activity change, negative = inhibition: at 46.1 µM (top of the series) unless noted
Procedure, shortened: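 TMD8 ABC-DLBCL cells carrying doxycycline-inducible green luciferase fused to IkappaBalpha plus unfused red luciferase were exposed to compounds (up to 46 uM) for 4 hrs at 37C. Activity came from the overlap-corrected green/red luminescence ratio.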
In the case of `CS(=O)(=O)N(Cc1nc(-c2ccc(F)cc2)no1)c1ccccc1Cl`, the activity change, negative = inhibition is reported as inconclusive: 0.678%. In the case of `COc1ccccc1CCC(=O)Nc1ncc(C)s1`, the activity change, negative = inhibition is reported as inconclusive: -11.7%. With `Cc1nn(-c2ccccc2)c(C)c1/C=C/C(=O)OC(C)C(N)=O` (stereo not given) the Potency was inconclusive: 6.51 µM [rising, partial curve, poor fit]. For `COc1ccc(NC(=O)C/C(C)=N/NC(=O)C(=O)NC(C)C)c(OC)c1`, the activity change, negative = inhibition was inconclusive: 2.32%. In the case of `O=C(Nc1nc(-c2ccccc2)cs1)C1CCCCN1S(=O)(=O)c1ccccc1` (stereo not given), the activity change, negative = inhibition is reported as inconclusive: 13.7%. With `O=C(Nc1cc(S(=O)(=O)N2CCCC2)ccc1Cl)c1cc(F)c(F)c(F)c1F` the “activity change, negative = inhibition” value was inactive: 9.63%. In the case of `CC(C)[C@H](N)c1nnc(SCc2ccc(Cl)cc2)o1`, the “activity change, negative = inhibition” value is reported as inactive: 1.69%. In the case of `CN(C)S(=O)(=O)c1ccc(N2CCOCC2)c(C(=O)O)c1`, the activity change, negative = inhibition is reported as inconclusive: 17.2%. In the case of `O=C(N/N=C/c1c[nH]c2ccccc12)c1ccc2c(c1)OCCO2`, the Potency is reported as inconclusive: 20 µM [falling, partial curve, poor fit]. For `CCn1c(SCC(=O)N2CCCc3ccccc32)nc2c(c1=O)SC(C)C2` (stereo not given), the Potency was inconclusive: 15.8 µM [rising, partial curve, poor fit]. With `COC(=O)c1ccc(OC(=O)/C=C/c2ccco2)cc1` the activity change, negative = inhibition was inconclusive: 8.93%. For `O=C(NCC1CCCO1)C1CCCN(Cc2cnn(-c3ccccc3)c2-n2cccc2)C1` (stereo not given), the activity change, negative = inhibition was inconclusive: -2.24%. For `CCOC(=O)/C(C#N)=C\c1c(OCC)n(CC)c2ccccc12`, the Potency was inconclusive: 3.26 µM [activator, partial curve, poor fit]. With `Cc1cccc(C(=O)Nc2nnc(Cc3ccccc3)s2)c1` the activity change, negative = inhibition was inconclusive: -12.1%. In the case of `Cc1cc(C)c(C#N)c(OCC(=O)c2ccccc2)n1`, the activity change, negative = inhibition is reported as inconclusive: 12.9%. For `CCOC(=O)CNC(=O)c1c(C)nn(-c2ccccc2)c1Cl`, the activity change, negative = inhibition was inconclusive: 13.7%. In the case of `CC(C)C[C@H](NC(=O)c1[nH]cnc1C(=O)N[C@@H](Cc1ccccc1)C(=O)OC(C)(C)C)C(=O)OCc1ccccc1`, the Potency is reported as inconclusive: 17.8 µM [rising, single point]. For `Cc1cc(C(=O)COC(=O)c2ccc(Br)o2)c(C)n1Cc1ccco1`, the activity change, negative = inhibition was inconclusive: 5.77%. With `Cc1noc(C)c1COC(=O)/C=C/c1ccc(Cl)cc1` the activity change, negative = inhibition was inconclusive: 11.6%. For `CSc1ccccc1C(=O)NC1CC2CCC1C2` (stereo not given), the activity change, negative = inhibition was inconclusive: -4.07%. With `CCN=C1S/C(=C\c2cc(OCC)c(O)cc2Br)C(=O)N1CC` the “activity change, negative = inhibition” value was inactive: 1.29%. In the case of `CN(C)CCNC(=O)c1[nH]nc2c1CCc1ccccc1-2`, the activity change, negative = inhibition is reported as inconclusive: -4.44%. With `COC(=O)[C@H](Cc1ccccc1)NC(=O)NCCc1ccc(OC)cc1` the activity change, negative = inhibition was inconclusive: 3.47%. In the case of `CC(Nc1ccc(Br)cc1)C(=O)Nc1cccc(S(=O)(=O)N2CCOCC2)c1` (stereo not given), the activity change, negative = inhibition is reported as inconclusive: -5.34%. For `CCOc1cccc2cc(C(=O)OCC(=O)Nc3c(C)cccc3CC)c(=O)oc12`, the Potency was inconclusive: 10.3 µM [falling, partial curve]. With `CCOc1ccc(CC(=O)Nc2c(C(N)=O)oc3ccccc23)cc1OCC` the activity change, negative = inhibition was inconclusive: 18.8%. In the case of `CCOC(=O)CC(=O)CSCC(=O)Nc1ccc(C)cc1`, the Potency is reported as inconclusive: 23.1 µM [falling, partial curve, poor fit]. In the case of `COc1ccc(C(C(=O)NC2CCCCC2)N(C(=O)c2ccco2)c2ccccc2OC)cc1` (stereo not given), the activity change, negative = inhibition is reported as inconclusive: 2.12%. With `COc1ccc(C2CC(=O)N3CN(c4ccccc4F)CSC3=C2C#N)cc1OC` (stereo not given) the activity change, negative = inhibition was inconclusive: -7.4%. With `COc1ccc(Cl)cc1C(=O)Nc1ccc(Br)c(C)n1` the activity change, negative = inhibition was inconclusive: 19.2%. For `CC(=O)Nc1cc(C(=O)CSc2nnc(C3CC3)n2C2CC2)ccc1O`, the “activity change, negative = inhibition” value was inactive: 2.86%. With `Cc1csc(=O)n1CCC(=O)OC(C)C(=O)NCc1ccccc1` (stereo not given) the “activity change, negative = inhibition” value was inactive: 3.46%. For `Fc1ccc(-c2csc3ncnc(N4CCN(c5ccccc5)CC4)c23)cc1`, the “activity change, negative = inhibition” value was inactive: 0.161%. With `O=[N+]([O-])c1cccc(S(=O)(=O)c2ccc(NCCOCCO)c([N+](=O)[O-])c2)c1` the “activity change, negative = inhibition” value was inactive: 1.76%. With `Cc1ccc(S(=O)(=O)NC(CC(C)C)C(=O)N2CCOCCOCCOCC2)cc1` (stereo not given) the “activity change, negative = inhibition” value was inactive: 7.78%. In the case of `Cc1cc(Nc2cccc(Cl)c2)nc(NCc2ccccc2)n1`, the activity change, negative = inhibition is reported as inconclusive: -14%. In the case of `CC1(C)Cc2cccc(C(=O)Nc3ccc(F)cc3F)c2O1`, the activity change, negative = inhibition is reported as inconclusive: 25.8%. With `COc1ccc(CCNC(=O)c2ccc3c(c2)OCO3)cc1` the Potency was inconclusive: 22.4 µM [falling, partial curve, poor fit]. In the case of `Cc1ccc(-c2cc(-c3cccc(F)c3)n[nH]2)c(O)c1`, the Potency is reported as inconclusive: 20.6 µM [falling, partial curve]. In the case of `O=C(NCCS(=O)(=O)NC1CCCC1)c1ccccc1`, the “activity change, negative = inhibition” value is reported as inactive: 1.93%.
